Reference: the supplement of paper PMC12024529
Where a name gives a salt, the structure may show the parent alone. Some of the results follow. Plates or batches differ in their baseline, so values are only roughly comparable.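 The cells are HEK293 lines stably expressing B-domain-deleted factor VIII fused to Gaussia luciferase, either wild type or a misfolding-prone missense mutant. Each score is mean luminescence from triplicate wells minus the DMSO mean, divided by the DMSO standard deviation; a score of 2 or more counts as a hit, and low scores may reflect lower secretion or poorer cell viability.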

test system: HEK293 WT BDD-FVIII-Gluc; test: secreted FVIII-Gluc luciferase Z-score vs DMSO control; higher = more FVIII-Gluc secretion; conditions: 5 µM; 24 h

Secreted FVIII-Gluc luciferase Z-score, inactive:
CCN(Cc1ccncc1)C(=O)C(CO)c1ccccc1 (configuration not stated) [Tropicamide] -2.53
C=Cc1c(C)c2cc3nc(cc4[nH]c(cc5nc(cc1[nH]2)C(C)=C5CCC(=O)O)c(CCC(=O)OC)c4C)C1(C)C3=CC=C(C(=O)OC)C1C(=O)OC (configuration not stated) [Verteporfin (Visudyne)] -7.99
CCCCNc1ccc(C(=O)OCCN(C)C)cc1 [Tetracaine hydrochloride (Pontocaine)] 0.0497
O=C(O)/C=C/c1ccc(Cn2ccnc2)cc1 [Ozagrel HCl] -0.263
Cc1cc(NC(=O)C2=C(O)c3ccccc3S(=O)(=O)N2C)no1 [Isoxicam] -2.03
C#C[C@]1(O)CC[C@H]2[C@@H]3CCc4cc(OC)ccc4[C@H]3CC[C@@]21C [Mestranol] 0.928
O=C(O)CSCC(=O)NC1CCSC1=O (configuration not stated) [Erdosteine] -2.7
CC(=O)OCC[N+](C)(C)C [Acetylcholine chloride] 0.0816
CC(C)NCC(O)COc1cccc2ccccc12 (configuration not stated) [Propranolol HCl] -1.84
COC(=O)N[C@H](C(=O)N[C@@H](Cc1ccccc1)[C@@H](O)CN(Cc1ccc(-c2ccccn2)cc1)NC(=O)[C@@H](NC(=O)OC)C(C)(C)C)C(C)(C)C [Atazanavir sulfate] -3.79
Oc1ccc(OC2CCCCO2)cc1 (configuration not stated) [Deoxyarbutin] 0.517
NC(=O)N1c2ccccc2CC(=O)c2ccccc21 [Oxcarbazepine] -1.31
